Data as given in article PMC5042352 (Analytical methods : advancing methods and applications, 2016).

Type: in vivo, human (Chinese male healthy subjects)
Settings: after i.m. injection of the compound medicine BSP and BDP

Compound: C[C@H]1C[C@H]2[C@@H]3CCC4=CC(=O)C=C[C@]4(C)[C@@]3(F)[C@@H](O)C[C@]2(C)[C@@]1(O)C(=O)COP(=O)([O-])[O-].[Na+].[Na+] [BSP, betamethasone sodium phosphate]
- plasma concentration in healthy subjects' plasma samples (detectability): could not be detected
